Measurements reported in PubChem BioAssay AID1259308 (NCATS, 2017)
Screen: 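Candidate targets for better recombinant protein yield in mammalian cells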 (primary screen). Cells: human HEK293 embryonic kidney cells stably expressing firefly luciferase (HEK-CMV-Luc2-Hygro). Knock-down reagent: single siRNA against human genes, 0.8 pmol siRNA per well. Timing: 72 h. Measured: 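Reporter luminescence and viable-cell signal on separate replicate plates, given as percent of non-targeting control and median/MAD z-scores, plus per-cell luciferase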. Reading the numbers: total luciferase, z-score: higher = more reporter protein produced. Call rule: 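Active when the median/MAD z-score for overall luciferase is greater than 3; a gene was taken forward for validation with new siRNAs if at least two of its three siRNAs passed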. Meaning of the calls: active = raised luciferase; inactive = no rise.
The whole screen tested about 59,000 reagents; shown is a random part of them. Of all reagents, about 1,510 (2.6%) were called active. 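Calls use total luciferase alone and ignore viability, so some active siRNAs may act by altering cell number.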 The numbers tell different reagents against one gene apart. Not all columns of the deposit are shown. Reagent sequences are not shown.

total luciferase, z-score, by gene symbol and reagent
TELO2 (telomere maintenance 2): #1 -2.12 inactive; #2 -2.12 inactive; #3 0.295 inactive
AQR (aquarius intron-binding spliceosomal factor): #1 1.86 inactive; #2 3 inactive; #3 0.254 inactive
PTPRJ (protein tyrosine phosphatase receptor type J): #1 -0.661 inactive; #2 0.266 inactive; #3 1.27 inactive
DOK7 (docking protein 7): #1 0.299 inactive; #2 -0.321 inactive; #3 0.00252 inactive
ZNF524 (zinc finger protein 524): #1 -1.62 inactive; #2 0.813 inactive; #3 1.76 inactive
NKIRAS2 (NFKB inhibitor interacting Ras like 2): #1 -0.589 inactive; #2 -1.04 inactive; #3 -0.896 inactive
PPP1R18 (protein phosphatase 1 regulatory subunit 18): #1 -1.31 inactive; #2 0.913 inactive; #3 2.48 inactive
STAG3L3 (STAG3 cohesin complex component like 3 (pseudogene)): #1 2.77 inactive; #2 0.0231 inactive; #3 -0.943 inactive
RIC1 (RIC1 partner of RAB6A GEF complex): #1 1.98 inactive; #2 0.61 inactive; #3 2.04 inactive
ABHD2 (abhydrolase domain containing 2, acylglycerol lipase): #1 -0.183 inactive; #2 0.502 inactive; #3 0.862 inactive
KCNIP2 (potassium voltage-gated channel interacting protein 2): #1 2.48 inactive; #2 0.698 inactive; #3 -0.169 inactive
LALBA (lactalbumin alpha): #1 -1.47 inactive; #2 0.228 inactive; #3 0.0142 inactive
TEX9 (testis expressed 9): #1 -1.34 inactive; #2 -0.485 inactive; #3 0.228 inactive

6 neighbouring reagents already listed, quoted:
total luciferase, z-score, by gene symbol and reagent
ZNF524 (zinc finger protein 524): #1 -1.62 inactive; #2 0.813 inactive; #3 1.76 inactive
NKIRAS2 (NFKB inhibitor interacting Ras like 2): #1 -0.589 inactive; #2 -1.04 inactive; #3 -0.896 inactive
